# Experimental data reported in PubChem BioAssay AID1345085 (National Center for Advancing Translational Sciences (NCATS), 2018).
# The shares of active, inactive and inconclusive entries below differ from those in the screen. Potencies beside an inconclusive call are fits to weak or partial responses and may not hold up. Active and inactive are the calls of the source. Calls follow the shape of the dose curve; as a rule, active = well fitted cell-killing curve with a large enough effect; inconclusive = small, poorly fitted or top-dose-only effect, or effect the other way; inactive = no such curve, though single readings can be large or run the other way.
# System: Tov-21-G
# Assay: Confirmatory qHTS for gynecologic anti-cancer compounds from libraries of approved drugs and bioactive compounds; also: nearly all actives have a fitted effect of over 55% in size
# Conditions: gynecologic cancer cell panel viability, ATPlite luminescence, 48 h; series mostly up to 57.7 µM
# Method in brief: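 IC50 values derive from an ATPlite ATP-content luminescence assay following 48 h treatment at 37 C. Each compound ran as an 11-concentration, threefold series (57.5 uM to 0.977 nM); HEK 293T served as control line for selectivity index.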
# Potency is read from the fitted curve at half-maximal effect.
row,SMILES,Potency
1,C[C@]12CC[C@H]3[C@@H](CCC4=CC(=O)CC[C@@H]43)[C@@H]1CC[C@@H]2OC(=O)CCc1ccccc1,"inconclusive: 1.53 µM [rising, partial curve, poor fit]"
2,O=C(O)Cc1ccccc1,inactive
3,CCN1CCN(C(=O)Cc2ccc(Nc3ncc(F)c(Nc4ccc(C(=O)Nc5ccccc5Cl)cc4)n3)cc2)CC1,inactive
4,CCNC(=O)C[C@@H]1N=C(c2ccc(Cl)cc2)c2cc(OC)ccc2-n2c(C)nnc21,active: 0.685 µM
5,CCC(=O)O[C@H]1CC[C@H]2[C@@H]3CCC4=CC(=O)CC[C@]4(C)[C@H]3CC[C@]12C,"inconclusive: 0.0611 µM [cytotoxic, full curve, poor fit]"
6,C/C=C(/C)C(=O)O[C@H]1C(C)=C2[C@H]([C@@H]1OC(=O)CCCCCCC)[C@@](C)(OC(C)=O)C[C@H](OC(=O)CCC)[C@@]1(O)[C@H]2OC(=O)[C@@]1(C)O,active: 13.7 µM
7,C[C@H]1CCC/C=C/C2C[C@H](O)C[C@H]2[C@H](O)/C=C/C(=O)O1 (stereo partly drawn),"inconclusive: 0.544 µM [cytotoxic, full curve, poor fit]"
8,C=C(C)[C@H]1Cc2c(ccc3c2O[C@@H]2COc4cc(OC)c(OC)cc4[C@@H]2C3=O)O1,"inconclusive: 27.3 µM [cytotoxic, partial curve, poor fit]"
